Assay results from paper PMC4744930.

T1: VZV glycoprotein B (varicella-zoster virus, vaccine Oka strain (v-Oka)) (UniProt Q4JR05)
T1 sequence: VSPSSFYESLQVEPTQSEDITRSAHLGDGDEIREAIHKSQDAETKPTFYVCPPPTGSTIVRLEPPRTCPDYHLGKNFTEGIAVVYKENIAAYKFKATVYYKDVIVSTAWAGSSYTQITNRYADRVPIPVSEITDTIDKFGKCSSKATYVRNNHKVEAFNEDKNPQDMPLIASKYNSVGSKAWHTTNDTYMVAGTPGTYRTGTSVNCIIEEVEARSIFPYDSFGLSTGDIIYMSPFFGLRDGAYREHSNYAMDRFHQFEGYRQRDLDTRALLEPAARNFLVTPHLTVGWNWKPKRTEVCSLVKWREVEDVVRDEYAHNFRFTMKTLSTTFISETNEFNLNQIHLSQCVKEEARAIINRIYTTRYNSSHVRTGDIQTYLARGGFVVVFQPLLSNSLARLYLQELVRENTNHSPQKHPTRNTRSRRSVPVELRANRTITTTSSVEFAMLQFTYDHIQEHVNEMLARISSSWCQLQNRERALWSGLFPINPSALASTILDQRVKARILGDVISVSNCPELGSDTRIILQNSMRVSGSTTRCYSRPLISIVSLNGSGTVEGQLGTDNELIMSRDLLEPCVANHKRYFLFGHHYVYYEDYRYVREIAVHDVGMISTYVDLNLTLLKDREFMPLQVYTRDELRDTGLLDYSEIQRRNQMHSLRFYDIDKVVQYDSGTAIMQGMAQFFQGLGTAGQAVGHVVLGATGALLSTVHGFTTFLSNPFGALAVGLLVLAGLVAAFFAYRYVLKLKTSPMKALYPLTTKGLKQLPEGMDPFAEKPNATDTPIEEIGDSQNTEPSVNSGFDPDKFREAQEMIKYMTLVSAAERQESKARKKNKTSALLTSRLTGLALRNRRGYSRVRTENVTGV

B1: VZV glycoprotein B (protein, UniProt Q4JR05 72-931)
chain: T1 sequence

Assays:
[1] = biological target: T1, VZV glycoprotein B (varicella-zoster virus, vaccine Oka strain (v-Oka)); assay: co-IP; v-Oka-infected ARPE-19 cells in 1% Triton X-100 lysis buffer, lysate precleared with protein A beads; incubated overnight with mAb and protein A beads at 4 °C; washed with PBST (0.05% Tween 20 in PBS); Western blot; uninfected cell lysate as control; ORF9 precipitated with mAb 8H6 and blotted for gE, gB, gC, and the reverse (gE, gB, gC precipitated with mAbs 4A2, 4C8, 2D1 and blotted with 8H6)
[2] = biological target: VZV ORF9, membrane-associated tegument protein (varicella-zoster virus, vaccine Oka strain (v-Oka)); assay: as above

Molecule | binding [1] | binding [2]
VZV ORF9, membrane-associated tegument protein | binds | 
B1 |  | binds

Results are given in words; binding and its absence hold for the method and conditions named. Binding seen in cells or lysates may run through a third protein. A result given as binding can be weak or reduced; the word gives no strength.
